Laboratory results reported in publication PMC4663267, “A Novel C-Terminal Domain of RecJ is Critical for Interaction with HerA in Deinococcus radiodurans”.

Assays:
[1] = target: DrRecJ-core (Deinococcus radiodurans) (UniProt D0EM60); experiment: EMSA; conditions: DNA:protein 1:2 to 1:16, much weaker than full length; EMSA: 100 nM DNA, 80 mM NaCl, 20 mM Tris-HCl pH 7.5, 1 mM DTT, 30 C, 10 min, 5% TBE native PAGE; recombinant protein; residues 48-431; protein details: HMT (His6-MBP) tag removed by TEV; label: 5' FAM; single-stranded DNA
[2] = target: DrRecJΔC (Deinococcus radiodurans) (UniProt D0EM60); experiment: EMSA; conditions: EMSA: 100 nM DNA, 80 mM NaCl, 20 mM Tris-HCl pH 7.5, 1 mM DTT, 30 C, 10 min, 5% TBE native PAGE, recombinant protein, residues 1-531, protein details: HMT (His6-MBP) tag removed by TEV, label: 5' FAM, single-stranded DNA

Measured: binding result

AAAAAAAAAA [O1 (10 nt ssDNA)]
binds more weakly: [1] | [2]; DNA:protein 1:2 to 1:16, much weaker than full length | [2]; with DrHerA (hexamer:RecJΔC 8:1), no obvious enhancement

Weaker means in comparison with the reference protein, sequence or condition of that experiment. For part of these data: For at least one entry, the source does not settle the construct or the ends of the probe. For part of these data: At least one verdict was read from the data and is not stated in words by the source.
